Amino acid sequences for entries named in this document (tags omitted). Residues count along the entry.
UniProt Q03164, residues 869-1124: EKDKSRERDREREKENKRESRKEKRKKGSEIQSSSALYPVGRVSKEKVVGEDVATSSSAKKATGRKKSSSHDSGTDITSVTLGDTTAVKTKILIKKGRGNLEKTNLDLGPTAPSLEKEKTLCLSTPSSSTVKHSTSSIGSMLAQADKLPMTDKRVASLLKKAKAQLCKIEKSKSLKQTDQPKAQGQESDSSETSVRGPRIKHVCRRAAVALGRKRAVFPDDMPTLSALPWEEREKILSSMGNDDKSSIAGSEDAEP
UniProt Q8WYH8: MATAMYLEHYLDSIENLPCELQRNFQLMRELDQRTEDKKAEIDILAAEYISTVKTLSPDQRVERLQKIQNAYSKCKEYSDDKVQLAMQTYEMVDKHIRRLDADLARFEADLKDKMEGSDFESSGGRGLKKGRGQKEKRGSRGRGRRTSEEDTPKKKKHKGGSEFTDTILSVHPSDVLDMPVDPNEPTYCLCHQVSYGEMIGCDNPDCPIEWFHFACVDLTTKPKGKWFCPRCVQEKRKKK

In paper PMC8387021:

Biological target: fGAL4-MLL 869/1124 (UniProt Q03164)
Assay: affinity purification with mass spectrometry; fGAL4-MLL 869/1124 or MTMTh purified from the chromatin fraction of HEK293T cells by fanChIP; LC-MS/MS

binding: binds
Molecule: ING5 (from UniProt Q8WYH8 1-240)

binding: binds
B1: PHF16 (protein, UniProt Q92613 1-823)
chain: MKRHRPVSSSDSSDESPSTSFTSGSMYRIKSKIPNEHKKPAEVFRKDLISAMKLPDSHHINPDSYYLFADTWKEEWEKGVQVPASPDTVPQPSLRIIAEKVKDVLFIRPRKYIHCSSPDTTEPGYINIMELAASVCRYDLDDMDIFWLQELNEDLAEMGCGPVDENLMEKTVEVLERHCHENMNHAIETEEGLGIEYDEDVICDVCRSPDSEEGNDMVFCDKCNVCVHQACYGILKVPEGSWLCRSCVLGIYPQCVLCPKKGGALKTTKTGTKWAHVSCALWIPEVSIACPERMEPITKISHIPPSRWALVCNLCKLKTGACIQCSIKSCITAFHVTCAFEHGLEMKTILDEGDEVKFKSYCLKHSQNRQKLGEAEYPHHRAKEQSQAKSEKTSLRAQKLRELEEEFYSLVRVEDVAAELGMPTLAVDFIYNYWKLKRKSNFNKPLFPPKEDEENGLVQPKEESIHTRMRMFMHLRQDLERVRNLCYMISRREKLKLSHNKIQEQIFGLQVQLLNQEIDAGLPLTNALENSLFYPPPRITLKLKMPKSTPEDHRNSSTETDQQPHSPDSSSSVHSIRNMQVPQESLEMRTKSYPRYPLESKNNRLLASLSHSRSEAKESSPAWRTPSSECYHGQSLGKPLVLQAALHGQSSIGNGKSQPNSKFAKSNGLEGSWSGNVTQKDSSSEMFCDQEPVFSPHLVSQGSFRKSTVEHFSRSFKETTNRWVKNTEDLQCYVKPTKNMSPKEQFWGRQVLRRSAGRAPYQENDGYCPDLELSDSEAESDGNKEKVRVRKDSSDRENPPHDSRRDCHGKSKTHPLSHSSMQR

Results are given in words; binding and its absence hold for the method and conditions named. In cells and extracts the contact can be indirect. A yes stands for co-enrichment or nearness to the bait. Other partners may have been found. One block for each molecule: values may come before it.
